This experiment has as its target T1, peptide binding domain of Sse1p (Saccharomyces cerevisiae (yeast)) (UniProt P32589).
T1 sequence: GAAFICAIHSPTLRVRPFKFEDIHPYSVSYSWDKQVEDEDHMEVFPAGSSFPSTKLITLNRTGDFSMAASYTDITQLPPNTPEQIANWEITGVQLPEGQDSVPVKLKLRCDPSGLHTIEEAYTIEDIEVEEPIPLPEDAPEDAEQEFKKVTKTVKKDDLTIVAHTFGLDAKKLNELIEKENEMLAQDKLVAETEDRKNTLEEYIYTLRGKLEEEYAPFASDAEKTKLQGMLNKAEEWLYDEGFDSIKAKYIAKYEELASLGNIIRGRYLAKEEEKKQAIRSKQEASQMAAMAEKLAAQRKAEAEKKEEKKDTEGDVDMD
Briefly: fluorescence anisotropy. A general note: Fluorescence polarisation rises when a labelled molecule tumbles more slowly, as on binding a larger partner.

These are yes or no findings as the source states them, for the method shown. Some entries that bind do so weakly or less than the wild type. Sequences can lack the tags named with a protein.

B1: 6-carboxyfluorescein-aminohexanoic acid-N-terminal-linked polypeptide … (derived from firefly luciferase) (peptide)
peptide: LICGFRVVLMYRF
modifications: 6-carboxyfluorescein-aminohexanoic acid linked to the N-terminus
For the molecule B1, the binding entry is given as “binds”.
